Experimental data as given in article PMC10754140.
These are yes or no findings as the source states them, for the method shown. Binding seen in cells or lysates may run through a third protein. Here binding means that the protein was enriched with, or labelled near, the bait; the list need not be complete.

By UniProt entry, the sequences of proteins in these tests, tags left out.
UniProt Q15154: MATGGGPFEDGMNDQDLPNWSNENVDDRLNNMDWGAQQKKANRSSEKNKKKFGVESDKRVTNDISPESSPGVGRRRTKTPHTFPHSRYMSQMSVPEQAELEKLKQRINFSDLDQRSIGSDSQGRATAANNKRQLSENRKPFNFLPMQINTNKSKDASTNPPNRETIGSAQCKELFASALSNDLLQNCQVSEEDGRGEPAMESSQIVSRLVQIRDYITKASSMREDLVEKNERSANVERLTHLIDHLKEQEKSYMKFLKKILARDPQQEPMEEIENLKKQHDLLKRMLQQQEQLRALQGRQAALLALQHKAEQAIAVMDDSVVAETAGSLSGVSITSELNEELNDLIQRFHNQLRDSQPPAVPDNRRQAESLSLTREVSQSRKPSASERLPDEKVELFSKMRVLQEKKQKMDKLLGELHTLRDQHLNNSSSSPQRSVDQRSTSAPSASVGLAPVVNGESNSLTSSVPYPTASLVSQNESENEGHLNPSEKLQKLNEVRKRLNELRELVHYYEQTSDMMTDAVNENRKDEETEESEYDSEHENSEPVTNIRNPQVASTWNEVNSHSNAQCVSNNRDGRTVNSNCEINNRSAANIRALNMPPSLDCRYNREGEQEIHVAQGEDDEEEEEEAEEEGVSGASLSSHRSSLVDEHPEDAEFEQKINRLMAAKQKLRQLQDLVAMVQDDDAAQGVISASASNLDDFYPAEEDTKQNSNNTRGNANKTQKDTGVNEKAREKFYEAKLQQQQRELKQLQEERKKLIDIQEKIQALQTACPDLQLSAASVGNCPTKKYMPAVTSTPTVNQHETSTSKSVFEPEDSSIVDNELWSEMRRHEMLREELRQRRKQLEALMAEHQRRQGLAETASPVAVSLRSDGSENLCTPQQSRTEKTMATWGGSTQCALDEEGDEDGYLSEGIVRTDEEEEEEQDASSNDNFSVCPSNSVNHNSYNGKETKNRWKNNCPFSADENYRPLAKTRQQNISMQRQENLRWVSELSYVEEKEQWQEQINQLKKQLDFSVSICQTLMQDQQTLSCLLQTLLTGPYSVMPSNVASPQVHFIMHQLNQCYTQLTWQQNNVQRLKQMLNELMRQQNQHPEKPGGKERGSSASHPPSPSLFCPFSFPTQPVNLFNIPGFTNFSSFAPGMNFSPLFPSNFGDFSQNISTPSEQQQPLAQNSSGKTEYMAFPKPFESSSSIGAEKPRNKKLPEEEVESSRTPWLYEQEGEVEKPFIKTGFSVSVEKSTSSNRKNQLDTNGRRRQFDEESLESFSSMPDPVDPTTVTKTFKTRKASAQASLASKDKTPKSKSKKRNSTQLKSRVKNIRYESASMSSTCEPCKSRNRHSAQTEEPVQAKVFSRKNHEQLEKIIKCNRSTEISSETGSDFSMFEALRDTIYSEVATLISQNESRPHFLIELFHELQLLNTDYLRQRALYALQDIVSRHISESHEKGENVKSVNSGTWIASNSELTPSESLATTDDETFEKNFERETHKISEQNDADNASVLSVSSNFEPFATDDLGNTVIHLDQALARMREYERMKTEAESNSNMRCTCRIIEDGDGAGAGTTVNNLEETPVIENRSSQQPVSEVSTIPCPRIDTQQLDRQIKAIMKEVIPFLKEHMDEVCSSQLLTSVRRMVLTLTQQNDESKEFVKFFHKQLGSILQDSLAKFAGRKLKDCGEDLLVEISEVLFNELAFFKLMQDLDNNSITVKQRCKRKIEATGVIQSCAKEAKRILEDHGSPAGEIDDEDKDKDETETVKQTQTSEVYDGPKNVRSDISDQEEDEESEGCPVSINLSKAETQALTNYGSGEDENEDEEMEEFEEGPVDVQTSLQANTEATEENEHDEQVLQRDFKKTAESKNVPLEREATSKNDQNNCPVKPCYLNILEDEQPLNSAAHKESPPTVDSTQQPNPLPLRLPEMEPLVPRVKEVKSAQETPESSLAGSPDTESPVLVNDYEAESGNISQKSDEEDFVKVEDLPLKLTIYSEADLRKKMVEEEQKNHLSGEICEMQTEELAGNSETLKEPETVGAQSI

Biological target: T1, O‐GlcNAc transferase (OGT), endogenous (human (endogenous in MCF10A)) (UniProt O15294)
T1 sequence: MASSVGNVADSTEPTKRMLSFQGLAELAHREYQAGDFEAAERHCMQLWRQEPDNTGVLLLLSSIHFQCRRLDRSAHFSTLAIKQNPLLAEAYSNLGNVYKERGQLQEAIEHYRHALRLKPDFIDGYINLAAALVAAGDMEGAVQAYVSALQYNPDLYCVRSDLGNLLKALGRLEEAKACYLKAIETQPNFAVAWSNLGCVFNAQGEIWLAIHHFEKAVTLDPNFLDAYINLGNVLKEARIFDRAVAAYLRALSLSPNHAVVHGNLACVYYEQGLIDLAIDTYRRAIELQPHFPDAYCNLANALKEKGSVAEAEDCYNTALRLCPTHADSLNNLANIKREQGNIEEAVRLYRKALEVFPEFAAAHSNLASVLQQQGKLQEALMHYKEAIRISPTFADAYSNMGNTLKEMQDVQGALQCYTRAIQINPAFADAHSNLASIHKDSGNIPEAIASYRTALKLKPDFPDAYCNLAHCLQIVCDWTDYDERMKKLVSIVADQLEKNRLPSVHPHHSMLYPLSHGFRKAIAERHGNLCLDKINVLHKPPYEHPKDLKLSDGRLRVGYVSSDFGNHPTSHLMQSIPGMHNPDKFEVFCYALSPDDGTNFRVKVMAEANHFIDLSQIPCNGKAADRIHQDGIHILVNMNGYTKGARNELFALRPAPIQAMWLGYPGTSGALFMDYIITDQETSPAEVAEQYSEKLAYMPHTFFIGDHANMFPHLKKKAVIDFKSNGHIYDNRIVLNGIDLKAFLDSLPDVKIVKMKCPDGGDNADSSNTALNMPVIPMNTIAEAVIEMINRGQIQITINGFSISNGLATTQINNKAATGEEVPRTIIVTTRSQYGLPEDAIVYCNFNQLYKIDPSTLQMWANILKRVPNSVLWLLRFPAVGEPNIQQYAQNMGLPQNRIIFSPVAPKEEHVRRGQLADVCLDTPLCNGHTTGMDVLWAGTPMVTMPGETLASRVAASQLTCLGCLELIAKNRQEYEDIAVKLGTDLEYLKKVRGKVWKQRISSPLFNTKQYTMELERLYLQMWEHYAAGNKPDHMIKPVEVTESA
Assay: affinity purification with mass spectrometry; anti-OGT antibody used to immunoprecipitate endogenous OGT from MCF10A cell lysate; SDS-PAGE, Coomassie staining, tandem mass spectrometry

Substance: pericentriolar material 1 (PCM1), endogenous (from UniProt Q15154 1-2024)
- binding: binds
